# Results taken from PubChem BioAssay AID504467 (National Center for Advancing Translational Sciences (NCATS), 2011).
# Out of some 330,000 compounds screened, about 7,700 (2.3%) were called active. The inconclusive results got no clear call from the source; some entries with a clear call stand among them for comparison. Calls come from the whole dose curve; as a rule, active = well fitted inhibition curve with a large enough effect; inconclusive = small, poorly fitted or top-dose-only effect, or effect the other way; inactive = flat fitted curve, though single readings scatter. Potencies of inconclusive entries are doubtful fits and often do not repeat.
# Test: qHTS screen for small molecules that inhibit ELG1-dependent DNA repair in human embryonic kidney (HEK293T) cells expressing luciferase-tagged ELG1; note: nearly all actives have a fitted effect of over 55% in size
# Details: HEK293T ELG1-luciferase reporter, luminescence, 16 h, DNA damage induced by 5-fluorouridine; activity change, negative = inhibition: at 46.1 µM (top of the series)
# Method in brief: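 Overnight (16 hr) co-exposure of 2,000 cells/well to 5-fluorouridine and compound at 37 °C preceded detection. Luciferase was quantified via ONE-Glo luminescence; loss of signal denotes inhibition.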
# % is set by controls: 0 for no effect and ±100 for the full control effect; potency is the fitted concentration of half-maximal effect.
SMILES,"activity change, negative = inhibition",Potency
C=CCc1ccc(OCCCCOc2ccc(C(=O)O)cc2)c(OC)c1,inactive: -7.11%,–
Cc1ccc(-c2nnn(CCC(=O)NC(C)(C)C)n2)cc1,–,"inconclusive: 14.6 µM [activator, partial curve]"
Cc1ccc(Cn2c(SCC(=O)NCC3CCCO3)nc3c2c(=O)n(C)c(=O)n3C)cc1 (configuration not stated),–,"inconclusive: 10.3 µM [activator, partial curve, poor fit]"
CC(C)(C)OC(=O)C[C@@H]1C/C=C\C[C@H](CC(=O)NCCO)C(=O)NC[C@H](c2ccccc2)OC1=O,inactive: 21.6%,–
COc1c(S(=O)(=O)N2CCN(C)CC2)ccc(Cl)c1Cl,inactive: 1.8%,–
CCOc1cc(CNCc2ccccc2)ccc1OCC(=O)NC1CCCCC1,inactive: -7.75%,–
COc1ccc(CCNC(=O)c2oc3ccc(S(=O)(=O)N4CCOCC4)cc3c2C)cc1OC,–,"inconclusive: 18.4 µM [inhibitor, single point]"
COc1ccc(S(=O)(=O)NCCCCOc2ccc(Cl)cc2)cc1,–,"inconclusive: 20.6 µM [inhibitor, partial curve]"
CCOC(=O)Nc1cc(=O)c2ccccc2o1,–,"inconclusive: 5.17 µM [inhibitor, single point]"
O=C(Nc1ccc(OCC(=O)N2CCOCC2)cc1)c1cncc(Br)c1,–,active: 9.2 µM
CC(C)(C)C(=O)Nc1ccc(Sc2ccc([N+](=O)[O-])cc2)cc1,–,"inconclusive: 25.9 µM [inhibitor, partial curve, poor fit]"
COc1ccccc1N1CCN(C(=O)c2ccc(-c3ccc(Cl)cc3)o2)CC1,–,"inconclusive: 4.61 µM [inhibitor, full curve]"
COc1ccc(O)c(/C=N/Nc2nc(Nc3ccccc3)nc(-n3nc(C)cc3C)n2)c1,–,active: 2.59 µM
COC(=O)c1cccc(S(=O)(=O)N2CCC(n3nnc4cc(F)ccc43)CC2)c1,–,"inconclusive: 29.1 µM [inhibitor, single point]"
CN(C)/C=N/c1cc(=O)[nH]c(=O)n1Cc1ccccc1,–,"inconclusive: 20.6 µM [activator, single point]"
CCSc1nnc(NC(=O)c2cnccn2)s1,inactive: 28%,–
O=C(CNC(=O)c1ccc(Cl)cc1Cl)NCc1ccccn1,inactive: 13.4%,–
O=C(NC(NC(=S)Nc1ccc(Cl)cc1)C(Cl)(Cl)Cl)c1ccco1 (configuration not stated),inactive: -12.4%,–
Cc1cc(C(=O)CN2C(=O)c3ccccc3S2(=O)=O)c(C)n1CC1CCCO1 (configuration not stated),–,active: 5.17 µM
CC(C)c1nnc(NC(=O)C2CCCCC2)s1,–,"inconclusive: 18.4 µM [activator, partial curve]"
Cc1ccc(NC(=S)N2CCCCC2)cc1C,–,"inconclusive: 29.1 µM [activator, single point]"
Cc1ccc(NC(=O)c2ccccc2F)nc1,–,"inconclusive: 4.61 µM [activator, full curve]"
CC(C)n1c(CNC(=O)c2ccccc2)nc2ccccc21,inactive: -2.87%,–
Cc1cc(-c2nnc(CCC(=O)NCc3cccc(C(F)(F)F)c3)o2)no1,–,"inconclusive: 18.3 µM [activator, single point]"

# One compound at a time, as listed above. Values in the order: activity change, negative = inhibition	Potency
# COc1ccc(S(=O)(=O)NCCCCOc2ccc(Cl)cc2)cc1 reads –	inconclusive: 20.6 µM [inhibitor, partial curve]
# Cc1ccc(Cn2c(SCC(=O)NCC3CCCO3)nc3c2c(=O)n(C)c(=O)n3C)cc1 (configuration not stated) reads –	inconclusive: 10.3 µM [activator, partial curve, poor fit]
# Cc1ccc(NC(=O)c2ccccc2F)nc1 reads –	inconclusive: 4.61 µM [activator, full curve]

# (more compounds)

SMILES,"activity change, negative = inhibition",Potency
COc1ccc(CN=C2NN=C(c3ccccc3)CS2)cc1,inactive: 1.42%,–
CCCn1c(N)c(C(=O)CN(C)CC(=O)Nc2cc(C)ccc2C)c(=O)[nH]c1=O,–,"inconclusive: 23.1 µM [inhibitor, single point]"
CCOC(=O)c1ccc(OCC(=O)c2ccc(O)cc2O)cc1,–,"inconclusive: 18.4 µM [activator, single point]"
COc1cccc(CNC23CC4CC(CC(C4)C2)C3)c1OCc1ccccc1,–,"inconclusive: 18.3 µM [inhibitor, single point]"
CCN(CC(=O)Nc1c(F)cccc1F)C(=O)Cc1sc(C)nc1-c1ccc(F)cc1,inactive: -4.11%,–
O=S(=O)(c1cccc2nsnc12)N1CCCCC1,inactive: 12.7%,–
Cc1ccc(C(=O)C(C)OC(=O)Cc2c[nH]c3ccccc23)cc1 (configuration not stated),–,"inconclusive: 6.51 µM [activator, partial curve, poor fit]"
CCCCn1c(N)c(N(CCOC)C(=O)c2ccc(N3CCCC3=O)cc2)c(=O)[nH]c1=O,–,"inconclusive: 29.1 µM [activator, partial curve, poor fit]"
C=CCNC(=S)Nc1ccccc1,inactive: 9.6%,–
Cc1cc2nn(-c3ccc(F)cc3)nc2cc1N,–,"inconclusive: 3.26 µM [activator, partial curve]"
O=C(Nc1cccc(/C=C/c2nc3ccccc3c(=O)[nH]2)c1)c1ccccc1Cl,–,"inconclusive: 29.1 µM [inhibitor, single point]"
c1nc(NCCN2CCOCC2)c2sc3nc(N4CCOCC4)c4c(c3c2n1)CCC4,–,active: 23.1 µM
O=C(CCSc1nc2ccccc2o1)Nc1ccccc1,inactive: 7.35%,–
CC1CCC(NC(=O)Cn2c3c(c(-c4ccccc4Cl)cc2=O)CCC3)CC1 (configuration not stated),–,"inconclusive: 29.1 µM [inhibitor, single point]"
CN(C)S(=O)(=O)c1ccc(C(=O)Nc2ccccc2C(=O)O)cc1,inactive: 0.407%,–
CC(C)COc1ccc(C(=O)N(Cc2ccco2)C2CCS(=O)(=O)C2)cc1 (configuration not stated),–,"inconclusive: 12.6 µM [inhibitor, partial curve, poor fit]"
COC(=O)Cn1ncc(N(C)Cc2ccccc2)c(Cl)c1=O,–,"inconclusive: 20.6 µM [activator, partial curve]"
CCC(=O)N(CCC1(C(C)C)CCOC(C)(C)C1)C(C)c1cccs1 (configuration not stated),inactive: -3.4%,–
O=C([C@H](Cc1ccc(O)cc1)n1cc(CCO)nn1)N1CCNCC1,–,"inconclusive: 23.1 µM [activator, partial curve, poor fit]"
COc1ccc(C2C3=C(Nc4ncnn42)c2ccccc2CC3)cc1OC (configuration not stated),–,"inconclusive: 29.1 µM [inhibitor, single point]"
O=C(N/N=C/c1ccccn1)c1ccc([N+](=O)[O-])cc1,–,"inconclusive: 25.9 µM [activator, single point]"
O=C(CSc1n[nH]c(-c2ccncc2)n1)Nc1ccc(Br)cc1,inactive: -10.3%,–
ClC(/C=N/n1cnnc1)=C/c1ccccc1,inactive: 13.3%,–
CC(CCc1ccc(O)cc1)N(C)CCc1ccccc1 (configuration not stated),inactive: 2.81%,–

# Two records picked at random from the list so far, as already listed:
SMILES,"activity change, negative = inhibition",Potency
CCOC(=O)c1ccc(OCC(=O)c2ccc(O)cc2O)cc1,–,"inconclusive: 18.4 µM [activator, single point]"
CC(C)COc1ccc(C(=O)N(Cc2ccco2)C2CCS(=O)(=O)C2)cc1 (configuration not stated),–,"inconclusive: 12.6 µM [inhibitor, partial curve, poor fit]"

# Next part:

SMILES,"activity change, negative = inhibition",Potency
CN(Cc1nc(-c2cccs2)no1)CC(O)c1ccccc1 (configuration not stated),–,"inconclusive: 20.6 µM [activator, single point]"
Cc1ccccc1C(=O)Nc1cccc(N)c1,–,"inconclusive: 20.6 µM [activator, single point]"
CC(C)C(C(=O)NCc1ccco1)N(CC1CCCO1)C(=O)CNS(=O)(=O)c1ccc(F)cc1 (configuration not stated),–,"inconclusive: 6.51 µM [activator, partial curve, poor fit]"
CN1C(=O)S/C(=C/c2ccc(OCc3cccc(C(=O)O)c3)cc2)C1=O,–,"inconclusive: 0.92 µM [activator, partial curve]"
NS(=O)(=O)c1ccc(CNC(=O)c2ccc(Cl)c(S(=O)(=O)NCc3ccccc3)c2)cc1,inactive: -5.16%,–
CC(C)CC(=O)N1CCN(S(=O)(=O)c2ccc3ccccc3c2)CC1,–,"inconclusive: 23.1 µM [inhibitor, partial curve, poor fit]"
COc1ccc(-c2nnc(SCc3nc4ccccc4c(=O)[nH]3)o2)cc1,–,"inconclusive: 29.1 µM [activator, single point]"
Cn1c(=O)n(C)c2cc(NC(=O)c3cc4ccccc4o3)ccc21,–,"inconclusive: 18.4 µM [activator, partial curve]"
Cc1cccc(NC(=O)CSc2nc3ccccc3c3nc(CCc4c(C)n[nH]c4C)nn23)c1,–,"inconclusive: 11.2 µM [inhibitor, partial curve, poor fit]"
Cn1c(=O)[nH]c(=O)c2c1nc(SCCN1CCOCC1)n2CCCc1ccccc1,–,"inconclusive: 14.6 µM [inhibitor, partial curve, poor fit]"
Cc1ccc(C(=O)OCC(=O)N2CCOCC2)c(C)c1,–,"inconclusive: 20.6 µM [activator, partial curve]"
COC(=O)c1ccc(CSc2nnc(N)s2)cc1,–,"inconclusive: 20.6 µM [activator, partial curve]"
CCCCC(=O)OCC(=O)N1N=C(c2c[nH]c3ccccc23)C(O)C1c1ccc(OC)cc1 (configuration not stated),inactive: -24.9%,–
COC(=O)c1cc(COC(=O)c2cccnc2SC)oc1C,–,"inconclusive: 18.4 µM [activator, single point]"
Cc1ccc(-n2c(SCC(=O)NCCC3=CCCCC3)nc3n[nH]c(C)c3c2=N)cc1Cl,inactive: 3.77%,–
CC(C)(C)n1nnnc1C(c1ccc(F)cc1)N1CCN(Cc2ccc3c(c2)OCO3)CC1 (configuration not stated),inactive: 14.9%,–
CSc1ncccc1C(=O)NCCc1ccccc1,–,"inconclusive: 14.6 µM [activator, partial curve, poor fit]"
COc1cccc(C(=O)Oc2c(CN3CCOCC3)cc(Cl)c3cccnc23)c1,–,active: 18.4 µM
CC1(CC(=O)O)C(=O)N=C2C=CC=CN21 (configuration not stated),–,"inconclusive: 25.9 µM [activator, partial curve, poor fit]"
CC(C)c1ccc(N2C(=O)CC(NNC(=O)c3cccnc3)C2=O)cc1 (configuration not stated),inactive: 15.2%,–
Cc1ccc(C)c(N2CCN(C(=O)Cn3c(=O)[nH]c4ccsc4c3=O)CC2)c1,–,"inconclusive: 29.1 µM [inhibitor, partial curve, poor fit]"
CCn1c(SCC(=O)Nc2nccs2)nnc1-c1ccc(C)cc1,inactive: -8.27%,–
COc1ccc(-c2cc(C)no2)cc1S(=O)(=O)Nc1cccc(CN2CCCC2)c1,–,"inconclusive: 20.6 µM [activator, single point]"
COc1ccccc1C(=O)COC(=O)C1(C)CC1(Cl)Cl (configuration not stated),–,"inconclusive: 13 µM [activator, partial curve]"
